Test results from the supplement of paper PMC12819154, “High-throughput peptide-centric local stability assay extends protein–ligand identification to membrane proteins, tissues and bacteria” (Nature Structural & Molecular Biology, 2025).
This is one part of the list. Most values lie at the level of the controls, where differences are scatter.

Protein sequences, listed by entry. Tags and fused reporters are not part of them. Lines headed by an entry give the natural chain unless they say otherwise; changes in a name come on top.
UniProt O88803: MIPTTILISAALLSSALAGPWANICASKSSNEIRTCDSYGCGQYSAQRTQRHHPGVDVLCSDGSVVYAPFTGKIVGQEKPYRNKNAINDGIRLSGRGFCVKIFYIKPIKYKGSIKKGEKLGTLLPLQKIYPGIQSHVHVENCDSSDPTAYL
UniProt P00186: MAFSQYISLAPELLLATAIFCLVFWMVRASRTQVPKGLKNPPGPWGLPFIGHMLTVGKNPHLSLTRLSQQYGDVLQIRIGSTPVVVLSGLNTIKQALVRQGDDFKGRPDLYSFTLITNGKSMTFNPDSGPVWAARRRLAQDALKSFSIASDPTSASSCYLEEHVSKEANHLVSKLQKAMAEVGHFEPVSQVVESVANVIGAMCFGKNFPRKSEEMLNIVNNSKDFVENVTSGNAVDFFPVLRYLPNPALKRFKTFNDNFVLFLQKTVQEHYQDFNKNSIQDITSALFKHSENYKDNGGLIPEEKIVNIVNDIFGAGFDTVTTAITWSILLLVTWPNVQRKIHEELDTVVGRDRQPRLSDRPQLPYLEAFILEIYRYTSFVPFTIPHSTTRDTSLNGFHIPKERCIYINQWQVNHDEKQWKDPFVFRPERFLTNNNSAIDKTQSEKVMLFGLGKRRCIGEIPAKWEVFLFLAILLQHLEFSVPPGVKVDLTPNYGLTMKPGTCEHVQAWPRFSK
UniProt P01786, whole entry: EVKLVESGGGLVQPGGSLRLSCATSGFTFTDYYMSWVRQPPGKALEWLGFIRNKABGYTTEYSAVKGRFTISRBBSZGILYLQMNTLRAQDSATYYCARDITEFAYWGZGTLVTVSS
UniProt O35286: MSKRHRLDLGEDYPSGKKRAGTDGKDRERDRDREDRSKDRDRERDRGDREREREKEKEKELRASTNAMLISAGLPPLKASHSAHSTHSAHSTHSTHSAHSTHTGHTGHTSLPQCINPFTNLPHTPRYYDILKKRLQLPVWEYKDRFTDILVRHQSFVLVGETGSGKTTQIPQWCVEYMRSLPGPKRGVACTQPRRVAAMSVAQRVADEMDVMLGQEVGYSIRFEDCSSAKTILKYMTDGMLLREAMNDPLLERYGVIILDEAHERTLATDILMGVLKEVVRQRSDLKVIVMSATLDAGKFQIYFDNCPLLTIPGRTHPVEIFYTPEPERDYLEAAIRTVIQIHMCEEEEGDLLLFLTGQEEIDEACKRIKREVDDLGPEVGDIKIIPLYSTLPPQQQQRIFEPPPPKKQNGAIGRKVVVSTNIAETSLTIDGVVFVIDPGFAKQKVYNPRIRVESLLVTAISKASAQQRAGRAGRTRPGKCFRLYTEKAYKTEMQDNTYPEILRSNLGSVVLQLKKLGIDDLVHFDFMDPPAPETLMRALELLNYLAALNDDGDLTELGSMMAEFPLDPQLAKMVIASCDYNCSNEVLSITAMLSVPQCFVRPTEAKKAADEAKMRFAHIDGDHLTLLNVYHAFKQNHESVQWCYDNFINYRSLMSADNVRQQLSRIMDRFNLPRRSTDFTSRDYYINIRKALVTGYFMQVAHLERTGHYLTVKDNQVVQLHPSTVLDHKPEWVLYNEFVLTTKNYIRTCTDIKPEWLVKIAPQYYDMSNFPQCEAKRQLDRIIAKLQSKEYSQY
UniProt O88522, whole entry: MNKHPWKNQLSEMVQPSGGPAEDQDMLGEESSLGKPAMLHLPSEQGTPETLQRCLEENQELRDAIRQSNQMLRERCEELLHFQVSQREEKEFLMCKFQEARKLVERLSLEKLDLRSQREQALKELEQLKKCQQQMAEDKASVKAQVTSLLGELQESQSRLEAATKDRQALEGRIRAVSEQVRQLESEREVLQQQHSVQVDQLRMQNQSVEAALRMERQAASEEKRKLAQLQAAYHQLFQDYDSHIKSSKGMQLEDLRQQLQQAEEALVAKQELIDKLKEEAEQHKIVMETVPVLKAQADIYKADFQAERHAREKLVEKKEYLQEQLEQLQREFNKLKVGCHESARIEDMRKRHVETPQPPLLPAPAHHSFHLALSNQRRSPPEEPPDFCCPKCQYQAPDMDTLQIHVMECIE
UniProt O08709: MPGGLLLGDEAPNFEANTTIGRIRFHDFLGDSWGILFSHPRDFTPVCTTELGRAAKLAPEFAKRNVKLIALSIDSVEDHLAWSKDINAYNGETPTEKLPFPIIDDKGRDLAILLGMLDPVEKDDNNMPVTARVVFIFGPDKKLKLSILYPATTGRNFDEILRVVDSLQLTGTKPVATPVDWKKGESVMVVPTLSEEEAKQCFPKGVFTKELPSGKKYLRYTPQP
UniProt O88983: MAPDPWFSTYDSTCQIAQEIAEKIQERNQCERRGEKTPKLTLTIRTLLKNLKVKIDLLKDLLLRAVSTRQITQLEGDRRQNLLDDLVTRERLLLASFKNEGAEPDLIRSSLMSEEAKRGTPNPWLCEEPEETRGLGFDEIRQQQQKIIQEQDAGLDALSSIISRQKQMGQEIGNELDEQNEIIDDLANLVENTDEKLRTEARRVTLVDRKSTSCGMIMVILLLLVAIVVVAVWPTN
UniProt G3X982: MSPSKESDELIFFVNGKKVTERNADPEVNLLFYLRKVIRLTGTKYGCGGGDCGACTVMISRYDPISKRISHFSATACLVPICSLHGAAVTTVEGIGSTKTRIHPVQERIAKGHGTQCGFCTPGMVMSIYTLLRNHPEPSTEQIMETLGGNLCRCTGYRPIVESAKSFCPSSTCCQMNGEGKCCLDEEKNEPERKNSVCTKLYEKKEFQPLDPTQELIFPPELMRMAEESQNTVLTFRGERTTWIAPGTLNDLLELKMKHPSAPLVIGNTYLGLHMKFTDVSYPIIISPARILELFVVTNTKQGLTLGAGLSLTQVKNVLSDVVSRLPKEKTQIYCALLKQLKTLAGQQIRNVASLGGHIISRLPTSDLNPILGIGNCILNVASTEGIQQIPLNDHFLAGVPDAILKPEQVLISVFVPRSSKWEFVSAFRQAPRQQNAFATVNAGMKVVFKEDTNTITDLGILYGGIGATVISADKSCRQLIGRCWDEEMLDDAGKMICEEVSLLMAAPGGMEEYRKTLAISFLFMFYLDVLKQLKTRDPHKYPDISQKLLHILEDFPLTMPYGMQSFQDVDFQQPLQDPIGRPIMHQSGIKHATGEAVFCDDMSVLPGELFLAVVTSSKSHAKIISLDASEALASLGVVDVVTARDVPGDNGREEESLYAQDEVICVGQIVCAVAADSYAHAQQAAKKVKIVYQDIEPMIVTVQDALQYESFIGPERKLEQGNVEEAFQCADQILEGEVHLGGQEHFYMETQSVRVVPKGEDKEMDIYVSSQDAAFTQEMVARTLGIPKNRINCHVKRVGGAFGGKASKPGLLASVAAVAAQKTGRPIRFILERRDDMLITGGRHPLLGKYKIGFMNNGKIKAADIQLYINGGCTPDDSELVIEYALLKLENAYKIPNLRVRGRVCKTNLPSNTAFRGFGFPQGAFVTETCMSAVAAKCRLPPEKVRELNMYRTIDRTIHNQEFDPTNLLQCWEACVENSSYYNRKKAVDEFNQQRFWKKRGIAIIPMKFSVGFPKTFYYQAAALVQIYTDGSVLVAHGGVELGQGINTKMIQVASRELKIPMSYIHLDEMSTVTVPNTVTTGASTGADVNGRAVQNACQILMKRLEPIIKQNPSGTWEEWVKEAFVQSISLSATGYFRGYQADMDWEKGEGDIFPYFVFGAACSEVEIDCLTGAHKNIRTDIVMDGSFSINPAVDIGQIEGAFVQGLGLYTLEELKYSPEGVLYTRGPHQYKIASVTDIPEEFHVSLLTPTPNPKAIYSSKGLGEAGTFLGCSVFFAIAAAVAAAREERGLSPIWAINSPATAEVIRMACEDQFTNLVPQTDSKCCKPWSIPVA
UniProt O70362: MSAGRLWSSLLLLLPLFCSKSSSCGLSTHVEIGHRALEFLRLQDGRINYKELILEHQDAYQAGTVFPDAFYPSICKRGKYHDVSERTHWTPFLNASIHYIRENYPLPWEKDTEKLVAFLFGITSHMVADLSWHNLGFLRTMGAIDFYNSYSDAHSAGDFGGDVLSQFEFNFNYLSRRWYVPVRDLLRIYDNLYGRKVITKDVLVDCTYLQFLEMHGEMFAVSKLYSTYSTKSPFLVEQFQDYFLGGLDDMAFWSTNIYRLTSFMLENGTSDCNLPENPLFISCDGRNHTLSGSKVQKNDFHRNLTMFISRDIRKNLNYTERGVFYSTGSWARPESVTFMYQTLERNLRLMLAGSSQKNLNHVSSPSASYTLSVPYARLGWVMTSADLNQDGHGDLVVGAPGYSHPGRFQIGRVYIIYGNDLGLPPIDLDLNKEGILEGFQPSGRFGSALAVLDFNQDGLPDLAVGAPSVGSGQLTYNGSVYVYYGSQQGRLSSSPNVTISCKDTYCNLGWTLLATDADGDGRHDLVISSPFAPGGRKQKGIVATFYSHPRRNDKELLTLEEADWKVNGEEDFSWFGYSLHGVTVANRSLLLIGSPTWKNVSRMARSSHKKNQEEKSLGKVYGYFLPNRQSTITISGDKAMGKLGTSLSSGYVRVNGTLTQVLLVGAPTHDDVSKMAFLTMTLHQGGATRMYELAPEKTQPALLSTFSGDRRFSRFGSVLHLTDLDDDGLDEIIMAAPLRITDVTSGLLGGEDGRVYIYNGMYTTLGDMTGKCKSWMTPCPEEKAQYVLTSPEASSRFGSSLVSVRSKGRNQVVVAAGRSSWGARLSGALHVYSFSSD
UniProt G5E8V9: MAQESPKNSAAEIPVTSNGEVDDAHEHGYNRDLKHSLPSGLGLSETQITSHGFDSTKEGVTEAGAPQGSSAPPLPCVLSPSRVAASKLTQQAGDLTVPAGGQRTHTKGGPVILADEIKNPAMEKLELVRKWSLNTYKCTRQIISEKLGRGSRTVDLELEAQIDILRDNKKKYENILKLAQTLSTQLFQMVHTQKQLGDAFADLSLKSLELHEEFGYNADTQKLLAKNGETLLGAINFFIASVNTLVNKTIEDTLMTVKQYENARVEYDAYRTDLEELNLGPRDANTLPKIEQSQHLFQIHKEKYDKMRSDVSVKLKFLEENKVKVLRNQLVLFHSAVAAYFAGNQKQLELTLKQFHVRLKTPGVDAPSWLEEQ
UniProt O08539: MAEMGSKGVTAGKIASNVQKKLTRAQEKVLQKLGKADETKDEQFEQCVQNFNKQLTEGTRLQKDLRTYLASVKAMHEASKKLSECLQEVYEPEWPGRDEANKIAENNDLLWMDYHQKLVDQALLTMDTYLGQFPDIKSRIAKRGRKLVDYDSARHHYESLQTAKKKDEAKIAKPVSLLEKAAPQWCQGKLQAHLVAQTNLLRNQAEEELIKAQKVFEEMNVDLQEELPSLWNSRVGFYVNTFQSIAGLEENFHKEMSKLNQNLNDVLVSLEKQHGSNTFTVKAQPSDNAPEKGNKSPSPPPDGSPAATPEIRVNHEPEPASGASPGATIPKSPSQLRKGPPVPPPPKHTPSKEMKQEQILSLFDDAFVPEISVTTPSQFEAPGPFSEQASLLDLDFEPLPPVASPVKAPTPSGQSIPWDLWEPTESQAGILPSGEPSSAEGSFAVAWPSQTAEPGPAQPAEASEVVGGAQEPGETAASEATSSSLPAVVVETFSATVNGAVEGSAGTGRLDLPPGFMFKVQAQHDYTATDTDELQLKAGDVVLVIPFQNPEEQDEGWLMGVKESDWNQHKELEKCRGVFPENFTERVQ
UniProt O55022: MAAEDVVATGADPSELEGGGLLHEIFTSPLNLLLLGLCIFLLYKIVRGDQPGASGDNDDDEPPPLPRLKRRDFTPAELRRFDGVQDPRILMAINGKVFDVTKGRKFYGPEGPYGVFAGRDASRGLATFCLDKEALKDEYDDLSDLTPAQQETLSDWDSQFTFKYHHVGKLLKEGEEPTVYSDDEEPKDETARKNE
UniProt O08749: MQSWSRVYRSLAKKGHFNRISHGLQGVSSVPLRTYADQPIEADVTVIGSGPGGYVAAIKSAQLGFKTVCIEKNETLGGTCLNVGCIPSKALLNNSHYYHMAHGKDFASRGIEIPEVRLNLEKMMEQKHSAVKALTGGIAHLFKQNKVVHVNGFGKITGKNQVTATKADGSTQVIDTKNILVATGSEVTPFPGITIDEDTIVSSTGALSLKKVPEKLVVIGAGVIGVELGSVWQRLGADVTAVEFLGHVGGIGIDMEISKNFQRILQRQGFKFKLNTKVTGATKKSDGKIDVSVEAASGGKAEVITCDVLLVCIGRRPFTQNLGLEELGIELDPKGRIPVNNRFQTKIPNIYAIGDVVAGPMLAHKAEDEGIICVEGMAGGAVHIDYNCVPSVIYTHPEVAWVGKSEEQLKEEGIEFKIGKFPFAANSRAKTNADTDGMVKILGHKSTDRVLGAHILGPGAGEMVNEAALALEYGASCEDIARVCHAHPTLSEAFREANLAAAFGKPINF
UniProt O55126: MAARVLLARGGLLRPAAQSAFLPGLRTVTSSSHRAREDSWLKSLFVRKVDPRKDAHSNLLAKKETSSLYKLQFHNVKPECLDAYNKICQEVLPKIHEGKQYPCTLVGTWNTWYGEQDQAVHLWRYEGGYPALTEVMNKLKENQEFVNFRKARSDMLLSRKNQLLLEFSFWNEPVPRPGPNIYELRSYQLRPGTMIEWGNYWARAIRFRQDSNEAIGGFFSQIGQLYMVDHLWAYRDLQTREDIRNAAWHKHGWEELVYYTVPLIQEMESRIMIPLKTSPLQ

Compound: CN[C@@H]1C[C@H]2O[C@@](C)([C@@H]1OC)n1c3ccccc3c3c4c(c5c6ccccc6n2c5c31)C(=O)NC4 [staurosporine]
Assay: log2 fold change of pooled soluble protein (PISA), ligand vs vehicle (log2 ratio); higher = more thermally stabilized
Conditions: ligand concentration: 20 uM; assay format: PISA pool 52.9/55.5/58.6 C

Target: UniProt O88878
- log2 fold change of pooled soluble protein: -0.164

Target: UniProt O88425
- log2 fold change of pooled soluble protein: 0.0231

Target: UniProt O88384
- log2 fold change of pooled soluble protein: -0.0303

Target: UniProt O88803
- log2 fold change of pooled soluble protein: -0.119

Target: UniProt P00186
- log2 fold change of pooled soluble protein: 0.774

Target: UniProt O09164
- log2 fold change of pooled soluble protein: 0.0161

Target: UniProt O08784
- log2 fold change of pooled soluble protein: 0.0288

Target: UniProt O89103
- log2 fold change of pooled soluble protein: 0.148

Target: UniProt P01786
- log2 fold change of pooled soluble protein: 0.0707

Target: UniProt O35648
- log2 fold change of pooled soluble protein: 0.304

Target: UniProt O35286
- log2 fold change of pooled soluble protein: -0.00883

Target: UniProt O88522
- log2 fold change of pooled soluble protein: -0.0325

Target: UniProt O08709
- log2 fold change of pooled soluble protein: 0.0539

Target: UniProt O88983
- log2 fold change of pooled soluble protein: -0.0463

Target: UniProt O54782
- log2 fold change of pooled soluble protein: -0.24

Target: UniProt G3X982
- log2 fold change of pooled soluble protein: -0.072

Target: UniProt P01027
- log2 fold change of pooled soluble protein: -0.0264

Target: UniProt O55143
- log2 fold change of pooled soluble protein: 0.116

Target: UniProt O70362
- log2 fold change of pooled soluble protein: 0.0641

Target: UniProt G5E8V9
- log2 fold change of pooled soluble protein: 0.0953

Target: UniProt O08539
- log2 fold change of pooled soluble protein: 0.0265

Target: UniProt O55013
- log2 fold change of pooled soluble protein: -0.00856

Target: UniProt O55022
- log2 fold change of pooled soluble protein: 0.0606

Target: UniProt O70400
- log2 fold change of pooled soluble protein: -0.0266

Target: UniProt O08749
- log2 fold change of pooled soluble protein: -0.0327

Target: UniProt O70456
- log2 fold change of pooled soluble protein: 0.0719

Target: UniProt O35226
- log2 fold change of pooled soluble protein: -0.0669

Target: UniProt O70305
- log2 fold change of pooled soluble protein: 0.0191

Target: UniProt O35604
- log2 fold change of pooled soluble protein: 0.0432

Target: UniProt O88908
- log2 fold change of pooled soluble protein: -0.0215

Target: UniProt O35737
- log2 fold change of pooled soluble protein: -0.0749

Target: UniProt O70433
- log2 fold change of pooled soluble protein: 0.0273

Target: UniProt P01630
- log2 fold change of pooled soluble protein: -0.125

Target: UniProt O35465
- log2 fold change of pooled soluble protein: -0.224

Target: UniProt O09044
- log2 fold change of pooled soluble protein: 0.0205

Target: UniProt O55126
- log2 fold change of pooled soluble protein: -0.107
